{"sequences": {"note": "Sequences of proteins named here, by UniProt entry; tags and fusion partners are left off. A change or cut given only in a name is not applied to a line headed by its entry.", "UniProt G4MKD1": "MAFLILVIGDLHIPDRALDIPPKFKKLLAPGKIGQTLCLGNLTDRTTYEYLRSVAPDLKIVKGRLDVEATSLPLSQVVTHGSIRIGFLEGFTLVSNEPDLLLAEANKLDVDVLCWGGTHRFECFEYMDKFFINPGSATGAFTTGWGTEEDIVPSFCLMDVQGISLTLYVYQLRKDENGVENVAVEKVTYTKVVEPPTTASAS", "UniProt G4MU71": "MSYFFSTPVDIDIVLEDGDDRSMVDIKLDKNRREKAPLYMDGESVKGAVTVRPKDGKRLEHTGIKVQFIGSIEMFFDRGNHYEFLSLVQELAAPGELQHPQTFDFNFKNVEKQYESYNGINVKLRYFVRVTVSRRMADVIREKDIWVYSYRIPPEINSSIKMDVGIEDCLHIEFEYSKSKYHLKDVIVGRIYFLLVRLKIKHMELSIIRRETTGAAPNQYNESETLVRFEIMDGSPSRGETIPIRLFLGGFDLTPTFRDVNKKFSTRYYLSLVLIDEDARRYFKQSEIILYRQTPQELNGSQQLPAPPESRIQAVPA", "UniProt G4MYS1": "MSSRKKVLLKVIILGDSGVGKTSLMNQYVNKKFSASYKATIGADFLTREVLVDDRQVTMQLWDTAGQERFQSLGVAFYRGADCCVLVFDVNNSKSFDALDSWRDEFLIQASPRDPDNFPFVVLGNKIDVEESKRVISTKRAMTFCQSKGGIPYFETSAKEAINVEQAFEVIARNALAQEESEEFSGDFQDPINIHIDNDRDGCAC"}, "source": "paper PMC7814966", "note": "No constants are given. Whether binding was seen depends on the method and setting. Binding seen in cells or lysates may run through a third protein. Here binding means that the protein was enriched with, or labelled near, the bait; the list need not be complete. Sequences can lack the tags named with a protein.", "data": [{"molecular_target": "T1, MoVps35-GFP (Magnaporthe oryzae) (UniProt G4N4D6)", "T1 sequence": "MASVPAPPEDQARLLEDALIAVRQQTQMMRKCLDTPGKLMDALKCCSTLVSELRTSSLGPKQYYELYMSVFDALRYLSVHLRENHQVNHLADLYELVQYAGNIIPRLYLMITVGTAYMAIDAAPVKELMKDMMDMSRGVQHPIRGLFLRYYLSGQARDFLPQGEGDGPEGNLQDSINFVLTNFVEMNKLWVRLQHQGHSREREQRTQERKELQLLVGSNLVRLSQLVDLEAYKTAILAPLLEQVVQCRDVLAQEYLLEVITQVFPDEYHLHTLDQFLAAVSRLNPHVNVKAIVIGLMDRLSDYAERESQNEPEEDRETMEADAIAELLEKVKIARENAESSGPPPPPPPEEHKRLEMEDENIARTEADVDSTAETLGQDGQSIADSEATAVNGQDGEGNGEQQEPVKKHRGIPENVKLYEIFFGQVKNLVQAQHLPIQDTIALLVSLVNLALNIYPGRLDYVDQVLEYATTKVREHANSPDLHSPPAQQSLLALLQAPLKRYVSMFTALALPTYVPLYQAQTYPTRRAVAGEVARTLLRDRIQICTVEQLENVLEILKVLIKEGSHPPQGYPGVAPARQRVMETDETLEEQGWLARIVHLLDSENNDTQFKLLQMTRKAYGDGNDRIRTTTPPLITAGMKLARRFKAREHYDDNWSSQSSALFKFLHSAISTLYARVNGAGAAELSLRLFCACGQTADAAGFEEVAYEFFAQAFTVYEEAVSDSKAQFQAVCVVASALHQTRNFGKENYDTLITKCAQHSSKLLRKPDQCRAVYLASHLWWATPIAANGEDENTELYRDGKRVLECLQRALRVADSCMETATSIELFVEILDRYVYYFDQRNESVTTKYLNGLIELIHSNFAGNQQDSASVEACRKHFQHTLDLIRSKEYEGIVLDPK", "test": "affinity purification with mass spectrometry", "values": [{"substance": "MoVps29 (from UniProt G4MKD1)", "binding": "binds"}, {"substance": "MoVps26 (from UniProt G4MU71)", "binding": "binds"}, {"substance": "MoYpt7 (from UniProt G4MYS1 1-205)", "binding": "binds"}]}]}
